Results are given in words; binding and its absence hold for the method and conditions named. Some entries that bind do so weakly or less than the wild type.
Assays:
[1] = biological target: LRP5 (as used in Example 11) (UniProt O75197); experiment: summary of Example 11
[2] = biological target: LRP6 (as used in Example 11) (UniProt O75581); experiment: competition with 125I-Mesd for LRP6
[3] = biological target: LRP5 (as used in Example 11) (UniProt O75197); experiment: legend of FIG. 10

Protein sequences, listed by entry. Tags and fused reporters are not part of them. Residues count along the entry.
UniProt O75197, residues 32-1615: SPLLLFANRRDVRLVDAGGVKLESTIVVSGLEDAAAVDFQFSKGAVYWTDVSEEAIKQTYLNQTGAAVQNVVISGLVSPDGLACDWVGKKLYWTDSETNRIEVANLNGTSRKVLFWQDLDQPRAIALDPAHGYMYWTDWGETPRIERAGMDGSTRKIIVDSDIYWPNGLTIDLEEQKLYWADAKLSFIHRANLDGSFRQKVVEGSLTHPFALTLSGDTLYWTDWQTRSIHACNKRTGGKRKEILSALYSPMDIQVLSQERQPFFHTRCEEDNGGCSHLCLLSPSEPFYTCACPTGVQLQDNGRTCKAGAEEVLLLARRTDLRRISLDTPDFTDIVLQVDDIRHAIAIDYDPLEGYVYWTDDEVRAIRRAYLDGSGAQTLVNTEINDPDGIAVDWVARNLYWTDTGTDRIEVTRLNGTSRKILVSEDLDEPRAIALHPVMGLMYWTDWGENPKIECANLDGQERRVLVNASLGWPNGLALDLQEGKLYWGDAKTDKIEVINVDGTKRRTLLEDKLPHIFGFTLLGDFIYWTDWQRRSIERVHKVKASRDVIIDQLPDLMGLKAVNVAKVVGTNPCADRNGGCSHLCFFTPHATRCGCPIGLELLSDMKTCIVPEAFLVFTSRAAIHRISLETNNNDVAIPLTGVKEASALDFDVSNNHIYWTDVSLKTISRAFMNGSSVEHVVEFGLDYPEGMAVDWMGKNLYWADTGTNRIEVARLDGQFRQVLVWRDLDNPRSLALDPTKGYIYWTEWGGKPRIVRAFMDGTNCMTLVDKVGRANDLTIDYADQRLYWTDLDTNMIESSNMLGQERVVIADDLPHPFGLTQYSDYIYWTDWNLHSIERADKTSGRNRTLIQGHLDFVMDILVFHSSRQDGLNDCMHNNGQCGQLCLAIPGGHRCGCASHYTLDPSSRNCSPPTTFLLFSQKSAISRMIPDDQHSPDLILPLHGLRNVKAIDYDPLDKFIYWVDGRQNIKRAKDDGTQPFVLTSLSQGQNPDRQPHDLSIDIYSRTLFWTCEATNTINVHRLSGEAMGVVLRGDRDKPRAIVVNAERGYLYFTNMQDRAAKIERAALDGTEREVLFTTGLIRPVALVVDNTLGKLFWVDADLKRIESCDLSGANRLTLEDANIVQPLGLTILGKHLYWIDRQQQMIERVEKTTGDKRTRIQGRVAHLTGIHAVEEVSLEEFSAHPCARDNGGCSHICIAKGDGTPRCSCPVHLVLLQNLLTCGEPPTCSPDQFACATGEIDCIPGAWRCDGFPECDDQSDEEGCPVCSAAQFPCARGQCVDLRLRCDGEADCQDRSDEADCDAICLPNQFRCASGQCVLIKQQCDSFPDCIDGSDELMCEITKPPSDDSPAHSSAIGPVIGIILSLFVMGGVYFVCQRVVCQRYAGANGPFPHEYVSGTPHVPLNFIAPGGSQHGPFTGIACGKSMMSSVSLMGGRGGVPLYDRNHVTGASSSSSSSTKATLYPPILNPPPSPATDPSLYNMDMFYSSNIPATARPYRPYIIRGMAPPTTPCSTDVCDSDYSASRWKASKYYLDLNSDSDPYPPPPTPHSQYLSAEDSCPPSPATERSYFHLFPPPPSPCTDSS
UniProt O75581, residues 20-1613: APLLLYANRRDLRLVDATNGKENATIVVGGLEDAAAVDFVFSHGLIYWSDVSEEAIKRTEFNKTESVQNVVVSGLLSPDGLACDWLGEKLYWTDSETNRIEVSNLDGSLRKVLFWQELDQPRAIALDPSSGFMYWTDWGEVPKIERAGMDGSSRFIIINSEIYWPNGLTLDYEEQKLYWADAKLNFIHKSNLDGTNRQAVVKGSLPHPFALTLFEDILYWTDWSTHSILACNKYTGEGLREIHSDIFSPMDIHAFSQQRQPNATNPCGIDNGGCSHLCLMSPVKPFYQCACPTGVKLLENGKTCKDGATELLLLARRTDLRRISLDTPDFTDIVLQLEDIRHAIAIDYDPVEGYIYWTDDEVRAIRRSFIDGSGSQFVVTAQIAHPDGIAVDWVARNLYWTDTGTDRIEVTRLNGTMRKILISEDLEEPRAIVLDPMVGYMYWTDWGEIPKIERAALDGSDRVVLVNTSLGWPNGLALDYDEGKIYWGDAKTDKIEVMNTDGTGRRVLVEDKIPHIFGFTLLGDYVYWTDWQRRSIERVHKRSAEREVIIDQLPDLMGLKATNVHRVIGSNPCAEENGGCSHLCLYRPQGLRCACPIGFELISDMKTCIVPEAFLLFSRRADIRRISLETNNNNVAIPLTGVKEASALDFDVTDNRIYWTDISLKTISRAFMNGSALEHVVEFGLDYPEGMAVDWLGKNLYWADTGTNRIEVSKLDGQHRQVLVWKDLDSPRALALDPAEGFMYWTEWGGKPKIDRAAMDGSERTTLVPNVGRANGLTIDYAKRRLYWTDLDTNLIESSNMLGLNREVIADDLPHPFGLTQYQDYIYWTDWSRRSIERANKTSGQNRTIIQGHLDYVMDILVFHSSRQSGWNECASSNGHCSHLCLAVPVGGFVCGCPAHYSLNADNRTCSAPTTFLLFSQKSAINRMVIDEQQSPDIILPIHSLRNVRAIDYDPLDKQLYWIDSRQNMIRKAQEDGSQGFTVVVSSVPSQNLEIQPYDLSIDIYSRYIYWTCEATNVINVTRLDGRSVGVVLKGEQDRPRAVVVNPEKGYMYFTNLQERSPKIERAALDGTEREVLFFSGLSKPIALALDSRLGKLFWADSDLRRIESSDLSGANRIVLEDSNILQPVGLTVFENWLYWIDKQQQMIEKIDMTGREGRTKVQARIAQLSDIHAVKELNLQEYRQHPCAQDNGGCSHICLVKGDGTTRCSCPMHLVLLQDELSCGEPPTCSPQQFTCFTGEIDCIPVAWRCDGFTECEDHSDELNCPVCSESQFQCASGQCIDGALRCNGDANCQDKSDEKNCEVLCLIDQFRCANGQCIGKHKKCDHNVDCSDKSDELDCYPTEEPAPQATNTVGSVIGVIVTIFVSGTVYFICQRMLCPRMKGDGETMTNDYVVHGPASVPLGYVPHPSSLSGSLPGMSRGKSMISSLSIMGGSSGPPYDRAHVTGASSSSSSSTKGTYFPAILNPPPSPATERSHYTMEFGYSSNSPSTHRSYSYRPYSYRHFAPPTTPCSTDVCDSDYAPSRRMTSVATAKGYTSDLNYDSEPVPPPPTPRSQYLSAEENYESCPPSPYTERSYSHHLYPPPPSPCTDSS

Measured: binding

B1: recombinant mouse Mesd protein (wild type) (protein, not shown: small tags and cut ends)
chain: ADTPGEATPPPRKKKDIRDYNDADMARLLEQWEKDDDIEEGDLPEHKRPSAPIDFSKLDPGKPESILKMTKKGKTLMMFVTVSGNPTEKETEEITSLWQGSLFNANYDVQRFIVGSDRAIFMLRDGSYAWEIKDFLVSQDRCAEVTLEGQMYPGKGGGSKEKNKTKPEKAKKKEGDRKPRASKEDNRAGSRREDL
modifications: 125I-labelled (IODO-GEN method) where used as tracer
binds: all assays above
